PMC9699406

Amino acid sequences for entries named in this document (tags omitted). A change or cut given only in a name is not applied to a line headed by its entry.
UniProt B0Y2B8: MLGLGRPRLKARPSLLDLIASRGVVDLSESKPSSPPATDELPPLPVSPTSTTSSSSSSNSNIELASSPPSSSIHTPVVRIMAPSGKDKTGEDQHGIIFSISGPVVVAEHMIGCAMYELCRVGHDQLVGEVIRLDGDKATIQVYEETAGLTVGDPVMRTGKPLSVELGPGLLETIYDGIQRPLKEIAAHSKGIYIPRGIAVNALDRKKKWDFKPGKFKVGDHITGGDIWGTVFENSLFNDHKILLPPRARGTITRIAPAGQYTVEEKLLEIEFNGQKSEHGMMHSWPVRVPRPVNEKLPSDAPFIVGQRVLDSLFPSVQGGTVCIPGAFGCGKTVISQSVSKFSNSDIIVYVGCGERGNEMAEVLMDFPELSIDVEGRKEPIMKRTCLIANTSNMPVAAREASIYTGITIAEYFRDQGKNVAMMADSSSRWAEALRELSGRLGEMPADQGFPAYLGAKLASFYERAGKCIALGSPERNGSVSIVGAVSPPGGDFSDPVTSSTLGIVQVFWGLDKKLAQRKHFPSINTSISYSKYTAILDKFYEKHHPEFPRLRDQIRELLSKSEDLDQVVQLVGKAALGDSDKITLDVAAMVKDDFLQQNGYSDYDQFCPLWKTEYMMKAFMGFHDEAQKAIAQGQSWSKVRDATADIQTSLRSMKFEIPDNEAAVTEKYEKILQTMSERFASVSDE
UniProt B0YEE5: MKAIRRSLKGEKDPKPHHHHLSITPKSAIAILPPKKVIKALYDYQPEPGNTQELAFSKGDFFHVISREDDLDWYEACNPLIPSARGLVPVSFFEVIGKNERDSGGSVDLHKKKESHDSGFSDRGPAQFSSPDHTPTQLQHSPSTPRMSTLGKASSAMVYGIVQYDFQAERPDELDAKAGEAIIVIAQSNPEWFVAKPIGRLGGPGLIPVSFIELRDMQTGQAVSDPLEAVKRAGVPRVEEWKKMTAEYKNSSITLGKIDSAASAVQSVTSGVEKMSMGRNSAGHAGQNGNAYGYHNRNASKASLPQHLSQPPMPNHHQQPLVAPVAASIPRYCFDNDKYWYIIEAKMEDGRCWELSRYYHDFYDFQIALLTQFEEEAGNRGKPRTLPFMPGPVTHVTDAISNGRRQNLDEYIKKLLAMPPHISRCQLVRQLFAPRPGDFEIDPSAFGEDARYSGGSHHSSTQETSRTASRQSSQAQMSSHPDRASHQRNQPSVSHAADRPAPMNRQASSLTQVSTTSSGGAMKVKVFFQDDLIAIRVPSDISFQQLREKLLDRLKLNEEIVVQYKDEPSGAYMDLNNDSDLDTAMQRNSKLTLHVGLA
UniProt B0XPR4: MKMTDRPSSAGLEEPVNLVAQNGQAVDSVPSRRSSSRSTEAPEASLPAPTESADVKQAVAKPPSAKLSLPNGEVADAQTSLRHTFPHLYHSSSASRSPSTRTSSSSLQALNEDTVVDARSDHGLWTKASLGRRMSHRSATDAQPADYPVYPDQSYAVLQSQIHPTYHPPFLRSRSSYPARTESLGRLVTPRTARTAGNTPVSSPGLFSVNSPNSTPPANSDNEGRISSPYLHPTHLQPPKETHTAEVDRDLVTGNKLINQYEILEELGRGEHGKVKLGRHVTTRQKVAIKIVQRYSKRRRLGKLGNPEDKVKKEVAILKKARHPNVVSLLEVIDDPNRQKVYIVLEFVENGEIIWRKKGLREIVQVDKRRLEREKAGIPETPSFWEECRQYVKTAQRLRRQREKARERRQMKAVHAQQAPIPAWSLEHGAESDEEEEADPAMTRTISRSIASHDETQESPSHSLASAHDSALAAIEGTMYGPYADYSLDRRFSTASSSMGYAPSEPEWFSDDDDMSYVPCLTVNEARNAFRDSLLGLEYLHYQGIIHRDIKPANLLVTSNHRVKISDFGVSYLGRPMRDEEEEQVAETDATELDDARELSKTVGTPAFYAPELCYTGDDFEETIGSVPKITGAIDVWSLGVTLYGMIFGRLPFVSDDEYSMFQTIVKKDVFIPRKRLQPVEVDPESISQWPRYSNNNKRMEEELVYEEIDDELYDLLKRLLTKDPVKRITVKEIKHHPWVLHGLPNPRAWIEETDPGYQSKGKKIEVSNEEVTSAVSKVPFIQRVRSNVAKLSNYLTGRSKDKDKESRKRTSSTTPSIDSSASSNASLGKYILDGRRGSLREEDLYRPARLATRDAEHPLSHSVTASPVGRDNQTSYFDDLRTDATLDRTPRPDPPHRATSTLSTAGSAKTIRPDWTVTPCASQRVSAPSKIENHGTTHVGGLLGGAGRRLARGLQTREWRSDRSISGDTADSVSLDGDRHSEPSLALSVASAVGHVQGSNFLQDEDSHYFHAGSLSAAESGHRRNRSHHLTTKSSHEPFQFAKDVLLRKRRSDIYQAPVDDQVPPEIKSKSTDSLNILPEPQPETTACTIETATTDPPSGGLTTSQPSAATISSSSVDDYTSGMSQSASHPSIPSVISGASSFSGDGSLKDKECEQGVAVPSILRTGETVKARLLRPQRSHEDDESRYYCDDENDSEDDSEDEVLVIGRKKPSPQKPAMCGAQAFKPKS
UniProt B0XYM2: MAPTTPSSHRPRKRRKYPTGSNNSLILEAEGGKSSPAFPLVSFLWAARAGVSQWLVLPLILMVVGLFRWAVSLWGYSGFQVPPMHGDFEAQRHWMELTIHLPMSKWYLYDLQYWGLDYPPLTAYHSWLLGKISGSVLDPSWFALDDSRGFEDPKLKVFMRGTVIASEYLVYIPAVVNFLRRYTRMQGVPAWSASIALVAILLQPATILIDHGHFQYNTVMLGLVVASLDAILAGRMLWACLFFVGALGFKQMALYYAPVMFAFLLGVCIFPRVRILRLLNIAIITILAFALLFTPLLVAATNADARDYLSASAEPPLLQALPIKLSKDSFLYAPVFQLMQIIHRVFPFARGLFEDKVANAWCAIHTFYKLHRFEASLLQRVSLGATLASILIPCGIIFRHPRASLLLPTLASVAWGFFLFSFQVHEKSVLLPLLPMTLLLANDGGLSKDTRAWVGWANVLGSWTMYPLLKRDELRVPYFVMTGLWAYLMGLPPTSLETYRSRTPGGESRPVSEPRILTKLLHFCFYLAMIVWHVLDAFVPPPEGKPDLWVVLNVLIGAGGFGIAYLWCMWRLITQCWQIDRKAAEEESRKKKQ
UniProt B0XNZ1: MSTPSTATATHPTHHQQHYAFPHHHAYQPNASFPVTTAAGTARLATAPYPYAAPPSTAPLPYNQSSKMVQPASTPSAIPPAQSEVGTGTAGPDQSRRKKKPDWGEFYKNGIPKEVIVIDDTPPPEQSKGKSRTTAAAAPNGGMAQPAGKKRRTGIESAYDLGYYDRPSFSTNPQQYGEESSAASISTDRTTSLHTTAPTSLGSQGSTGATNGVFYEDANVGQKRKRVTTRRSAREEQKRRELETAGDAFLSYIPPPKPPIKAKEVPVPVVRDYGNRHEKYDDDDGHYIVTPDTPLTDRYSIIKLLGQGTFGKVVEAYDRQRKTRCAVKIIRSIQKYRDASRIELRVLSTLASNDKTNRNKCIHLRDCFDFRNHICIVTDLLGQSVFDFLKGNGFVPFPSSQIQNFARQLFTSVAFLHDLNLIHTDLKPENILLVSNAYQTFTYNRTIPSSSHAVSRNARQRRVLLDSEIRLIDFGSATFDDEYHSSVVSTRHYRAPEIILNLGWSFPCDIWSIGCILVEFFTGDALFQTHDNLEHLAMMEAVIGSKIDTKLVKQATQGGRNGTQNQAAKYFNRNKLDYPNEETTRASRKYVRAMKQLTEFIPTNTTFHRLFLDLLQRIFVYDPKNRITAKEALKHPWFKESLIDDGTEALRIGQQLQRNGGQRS
UniProt B0YDN9: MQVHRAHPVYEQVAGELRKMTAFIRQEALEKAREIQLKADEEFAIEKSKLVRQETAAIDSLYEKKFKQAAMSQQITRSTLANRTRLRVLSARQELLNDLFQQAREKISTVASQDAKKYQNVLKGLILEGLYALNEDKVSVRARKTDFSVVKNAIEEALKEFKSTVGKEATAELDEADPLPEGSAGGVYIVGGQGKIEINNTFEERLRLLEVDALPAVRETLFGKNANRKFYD
UniProt B0XTE0: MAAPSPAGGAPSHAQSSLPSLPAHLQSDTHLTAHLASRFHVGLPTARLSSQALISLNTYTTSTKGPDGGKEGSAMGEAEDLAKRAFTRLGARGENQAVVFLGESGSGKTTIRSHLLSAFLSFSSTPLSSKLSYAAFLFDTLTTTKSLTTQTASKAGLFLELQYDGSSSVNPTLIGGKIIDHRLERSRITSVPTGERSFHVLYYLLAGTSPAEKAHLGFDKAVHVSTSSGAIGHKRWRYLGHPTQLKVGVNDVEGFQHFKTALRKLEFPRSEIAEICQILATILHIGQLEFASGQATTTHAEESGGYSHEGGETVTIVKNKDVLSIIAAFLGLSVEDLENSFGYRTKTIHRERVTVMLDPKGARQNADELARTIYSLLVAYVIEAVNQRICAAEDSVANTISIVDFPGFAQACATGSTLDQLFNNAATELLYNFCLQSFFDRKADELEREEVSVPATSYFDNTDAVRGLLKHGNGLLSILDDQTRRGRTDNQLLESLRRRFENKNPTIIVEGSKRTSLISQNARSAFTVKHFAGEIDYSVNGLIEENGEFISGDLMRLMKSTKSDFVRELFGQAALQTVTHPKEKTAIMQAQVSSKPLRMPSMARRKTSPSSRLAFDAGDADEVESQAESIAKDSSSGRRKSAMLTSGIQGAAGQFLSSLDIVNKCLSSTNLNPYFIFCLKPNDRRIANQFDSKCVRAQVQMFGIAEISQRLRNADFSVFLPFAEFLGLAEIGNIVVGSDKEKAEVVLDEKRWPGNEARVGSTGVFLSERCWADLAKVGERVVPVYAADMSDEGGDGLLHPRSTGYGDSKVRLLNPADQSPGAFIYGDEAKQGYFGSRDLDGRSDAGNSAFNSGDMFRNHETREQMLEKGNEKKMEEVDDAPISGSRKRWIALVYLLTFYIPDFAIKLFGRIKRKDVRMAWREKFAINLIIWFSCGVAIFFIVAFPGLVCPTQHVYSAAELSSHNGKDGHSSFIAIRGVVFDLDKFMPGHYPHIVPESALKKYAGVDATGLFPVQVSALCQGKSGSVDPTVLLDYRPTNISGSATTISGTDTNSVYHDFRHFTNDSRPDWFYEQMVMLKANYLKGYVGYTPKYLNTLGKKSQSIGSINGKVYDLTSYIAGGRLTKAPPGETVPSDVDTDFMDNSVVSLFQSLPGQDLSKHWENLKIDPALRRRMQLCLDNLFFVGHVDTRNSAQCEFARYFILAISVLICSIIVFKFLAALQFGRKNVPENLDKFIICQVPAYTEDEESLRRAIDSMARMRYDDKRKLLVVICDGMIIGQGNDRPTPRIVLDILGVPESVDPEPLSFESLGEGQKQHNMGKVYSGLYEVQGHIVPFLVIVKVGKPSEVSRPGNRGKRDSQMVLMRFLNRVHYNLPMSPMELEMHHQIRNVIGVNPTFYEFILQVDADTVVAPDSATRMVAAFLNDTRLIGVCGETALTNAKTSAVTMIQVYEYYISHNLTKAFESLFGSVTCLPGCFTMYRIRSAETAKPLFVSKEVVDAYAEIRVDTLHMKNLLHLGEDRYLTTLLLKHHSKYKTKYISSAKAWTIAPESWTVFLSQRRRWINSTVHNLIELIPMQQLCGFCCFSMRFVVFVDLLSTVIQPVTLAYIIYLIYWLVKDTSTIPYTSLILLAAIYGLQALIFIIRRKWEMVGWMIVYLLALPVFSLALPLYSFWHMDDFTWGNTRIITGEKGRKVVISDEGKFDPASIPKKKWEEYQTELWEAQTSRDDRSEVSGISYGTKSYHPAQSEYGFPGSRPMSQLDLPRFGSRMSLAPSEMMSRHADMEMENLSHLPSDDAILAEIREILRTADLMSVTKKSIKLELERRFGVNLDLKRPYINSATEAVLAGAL
UniProt B0XTB8: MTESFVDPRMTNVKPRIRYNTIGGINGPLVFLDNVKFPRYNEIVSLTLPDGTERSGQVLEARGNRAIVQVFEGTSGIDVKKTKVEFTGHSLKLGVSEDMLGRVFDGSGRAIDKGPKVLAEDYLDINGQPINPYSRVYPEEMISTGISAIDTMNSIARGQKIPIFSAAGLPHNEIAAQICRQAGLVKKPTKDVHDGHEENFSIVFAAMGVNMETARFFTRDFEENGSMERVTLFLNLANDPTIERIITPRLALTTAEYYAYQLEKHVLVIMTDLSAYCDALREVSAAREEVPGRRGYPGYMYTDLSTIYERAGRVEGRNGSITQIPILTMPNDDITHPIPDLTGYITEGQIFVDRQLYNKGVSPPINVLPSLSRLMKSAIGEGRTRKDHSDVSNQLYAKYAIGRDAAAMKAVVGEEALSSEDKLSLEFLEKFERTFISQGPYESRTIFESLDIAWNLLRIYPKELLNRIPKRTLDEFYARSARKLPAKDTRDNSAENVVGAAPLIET

Target: VmaC-GFP (A. fumigatus V-ATPase subunit C with a C-terminal GFP tag) (A. fumigatus) (UniProt B0XQK0)
Assay: affinity purification with mass spectrometry; GFP antibody (Roche 11814460001) used to pull down VmaC-interacting proteins from the VmaC::GFP strain; nonlabelled strain as negative control; trypsin digest, TMT labelling, HPLC fractionation, LC-MS/MS, MaxQuant

| binding | Substance |
| --- | --- |
| binds | Vacuolar ATP synthase catalytic subunit A (from UniProt B0Y2B8) |
| binds | 1,3-beta-glucan synthase catalytic subunit Fks1 (from UniProt B0Y8S7) |
| binds | Serine/threonine-protein phosphatase (AFUB_005320) (from UniProt B0XNS3) |
| binds | Protein kinase activator Bem1 (from UniProt B0YEE5) |
| binds | Protein kinase (AFUB_051670) (from UniProt B0Y2R3) |
| binds | Serine/threonine protein kinase (AFUB_007300) (from UniProt B0XPR4) |
| binds | Vacuolar ATP synthase subunit H (from UniProt B0XQI7) |
| binds | Alpha-1,3-glucosyltransferase (AFUB_041400) (from UniProt B0XYM2) |
| binds | Mannan endo-1,6-alpha-mannosidase (AFUB_048110) (from UniProt B0XXF1) |
| binds | Protein kinase Lkh1 (from UniProt B0XNZ1) |
| binds | Vacuolar ATP synthase subunit E (from UniProt B0YDN9) |
| binds | Chitin synthase ChsE (from UniProt B0XTE0) |
| binds | Alpha-1,2-mannosyltransferase (Kre5) (from UniProt B0Y1C4) |
| binds | Vacuolar ATP synthase subunit B (from UniProt B0XTB8) |

These are yes or no findings as the source states them, for the method shown. Binding seen in cells or lysates may run through a third protein. These calls come from enrichment with a bait or labelling near it, and not all partners need be listed.
